Paper PMC6508535

T1: AtELF3-HFC (Arabidopsis EARLY FLOWERING 3 with C-terminal His6-3xFlag tag) (Arabidopsis thaliana) (UniProt O82804)
T1 sequence: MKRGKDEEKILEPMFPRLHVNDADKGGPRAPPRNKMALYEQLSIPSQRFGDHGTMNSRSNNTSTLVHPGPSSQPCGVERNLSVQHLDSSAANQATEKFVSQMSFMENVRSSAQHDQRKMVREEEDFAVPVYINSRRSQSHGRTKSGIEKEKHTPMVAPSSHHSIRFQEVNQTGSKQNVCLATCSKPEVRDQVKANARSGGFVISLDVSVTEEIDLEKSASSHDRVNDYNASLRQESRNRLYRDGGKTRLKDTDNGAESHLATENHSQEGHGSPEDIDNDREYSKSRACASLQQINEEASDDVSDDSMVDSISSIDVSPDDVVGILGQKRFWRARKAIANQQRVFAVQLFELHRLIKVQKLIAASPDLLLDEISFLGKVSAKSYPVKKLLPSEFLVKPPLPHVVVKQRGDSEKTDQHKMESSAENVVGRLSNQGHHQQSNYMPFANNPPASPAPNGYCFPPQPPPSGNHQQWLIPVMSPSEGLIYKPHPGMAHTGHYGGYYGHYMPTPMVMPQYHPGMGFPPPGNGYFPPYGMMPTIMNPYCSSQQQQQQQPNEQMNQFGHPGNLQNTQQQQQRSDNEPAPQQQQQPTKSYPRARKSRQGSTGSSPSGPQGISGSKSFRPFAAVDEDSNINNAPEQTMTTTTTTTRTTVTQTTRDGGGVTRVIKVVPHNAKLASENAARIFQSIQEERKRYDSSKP


How the values were obtained:
Assay in all cases: affinity purification with mass spectrometry; tandem affinity purification by the FLAG and His epitopes of ELF3-HFC from extracts of 10-day-old transgenic Arabidopsis seedlings (elf3-2 background), 12L:12D, harvested at ZT12; two replicates for each line
[1] = molecular target: BdELF3-HFC (Brachypodium distachyon ELF3 with C-terminal His6-3xFlag tag) (Brachypodium distachyon)
[2] = molecular target: SvELF3-HFC (Setaria viridis ELF3a with C-terminal His6-3xFlag tag) (Setaria viridis)
[3] = molecular target: T1, AtELF3-HFC (Arabidopsis EARLY FLOWERING 3 with C-terminal His6-3xFlag tag) (Arabidopsis thaliana)

binding [1] | binding [2] | binding [3] | Binder
no binding | no binding | binds | SPA2 (protein, UniProt Q9T014 1-1036) MMDEGSVGDVSRIDEADVAHLQFKNSEQSFKPENIEVREVKEVQVQREAGSPDCSYGVIADFLDGKNGGDHVELIGNEPCSSRQNTNDEGDVVEELTVKTCEGSSMAIVGRPSSRARLEMNRSQFLHRFPLDGDLPGSSSMSKKVIDRGTVSILRNAGKMSLPETSNGQLAIIAVNGEANEHLTNVERNPVPVEALSHEGIKTKMLSQSGFSQFFVRKTLKGKGVTFRGPPNNRSKARNMDQQTVASSGSALVIANTSAKISSSIPLAAYDGLPCLPSNTSKPSSCANPSDTHRGCGGEGLSLREWLKSERQEVNKAECMYIFRQIVDHVDCSHSQGVVLCDLRPSSFKIFKENAVKYVVSGSQRESFDSNMNKETLSQLENPLVRRRLGDTSSLSIPAKKQKSSGPSSRQWPMFQRAGGVNIQTENNDGAIQEFHFRSSQPHCSTVACPFTSVSEQLEEKWYASPEELRGDMRSASSNIYSLGILLYELLSQFQCERAREAAMSDIRHRILPPKFLSENPKEAGFCLWLLHPESSCRPSTRDILQSEVVNGIPDLYAEGLSLSIEQEDTESELLQHFLFLSQEKRQKHAGNLMEEIASVEADIEEIVKRRCAIGPPSLEEASSSSPASSVPEMRLIRNINQLESAYFAARIDAHLPEARYRLRPDRDLLRNSDNTVAEVENSETWSSDDRVGAFFDGLCKYARYSKFETRGVLRTSELNNTSNVICSLGFDRDEDYFATAGVSKKIKIYEFNSLFNESVDIHYPAIEMPNRSKLSGVCWNNYIRNYLASSDYDGIVKLWDVTTGQAISHFIEHEKRAWSVDFSEACPTKLASGSDDCSVKLWNINERNCLGTIRNIANVCCVQFSPQSSHLLAFGSSDFRTYCYDLRNLRTPWCILSGHNKAVSYAKFLDNETLVTASTDNTLKLWDLKKTTHGGLSTNACSLTFGGHTNEKNFVGLSTSDGYIACGSETNEVYAYHRSLPMPITSYKFGSIDPISGKEIEEDNNLFVSSVCWRKRSNMVVSASSNGSIKVLQLV
binds | binds | binds | phyE (protein, UniProt P42498 1-1112) MGFESSSSAASNMKPQPQKSNTAQYSVDAALFADFAQSIYTGKSFNYSKSVISPPNHVPDEHITAYLSNIQRGGLVQPFGCLIAVEEPSFRILGLSDNSSDFLGLLSLPSTSHSGEFDKVKGLIGIDARTLFTPSSGASLSKAASFTEISLLNPVLVHSRTTQKPFYAILHRIDAGIVMDLEPAKSGDPALTLAGAVQSQKLAVRAISRLQSLPGGDIGALCDTVVEDVQRLTGYDRVMVYQFHEDDHGEVVSEIRRSDLEPYLGLHYPATDIPQAARFLFKQNRVRMICDCNATPVKVVQSEELKRPLCLVNSTLRAPHGCHTQYMANMGSVASLALAIVVKGKDSSKLWGLVVGHHCSPRYVPFPLRYACEFLMQAFGLQLQMELQLASQLAEKKAMRTQTLLCDMLLRDTVSAIVTQSPGIMDLVKCDGAALYYKGKCWLVGVTPNESQVKDLVNWLVENHGDDSTGLTTDSLVDAGYPGAISLGDAVCGVAAAGFSSKDYLLWFRSNTASAIKWGGAKHHPKDKDDAGRMHPRSSFTAFLEVAKSRSLPWEISEIDAIHSLRLIMRESFTSSRPVLSGNGVARDANELTSFVCEMVRVIETATAPIFGVDSSGCINGWNKKTAEMTGLLASEAMGKSLADEIVQEESRAALESLLCKALQGEEEKSVMLKLRKFGQNNHPDYSSDVCVLVNSCTSRDYTENIIGVCFVGQDITSEKAITDRFIRLQGDYKTIVQSLNPLIPPIFASDENACCSEWNAAMEKLTGWSKHEVIGKMLPGEVFGVFCKVKCQDSLTKFLISLYQGIAGDNVPESSLVEFFNKEGKYIEASLTANKSTNIEGKVIRCFFFLQIINKESGLSCPELKESAQSLNELTYVRQEIKNPLNGIRFAHKLLESSEISASQRQFLETSDACEKQITTIIESTDLKSIEEGKLQLETEEFRLENILDTIISQVMIILRERNSQLRVEVAEEIKTLPLNGDRVKLQLILADLLRNIVNHAPFPNSWVGISISPGQELSRDNGRYIHLQFRMIHPGKGLPSEMLSDMFETRDGWVTPDGLGLKLSRKLLEQMNGRVSYVREDERCFFQVDLQVKTMLGVESRGTEGSSSIK
binds | binds | binds | LIGHT-REGULATED WD 2 (protein, UniProt Q38960 1-346) MVTSSDQIQNGSEEQSKRSEIYTYEAPWQIYAMNWSIRRDKKYRLAITSLIEQYPNRVEIVQLDESNGEIRSDPNLCFEHPYPPTKTSFIPDKECQRPDLLATSSDFLRLWRISDDESRVELKSCLSSDKNSEFSGPITSFDWNEAEPRRIGTSSIDTTCTIWDIEREVVDTQLIAHDKEVYDIAWGGVGVFASVSEDGSVRVFDLRDKEHSTIIYESGEPSTPLVRLSWNKQDPRYMATVIMGSAKIVVLDIRFPALPVVELQRHQASVNAIAWAPHSSSHICSAGDDSQALIWDISSMGQHVEGGLDPILAYTAGAEVEQLQWSSSQPDWVAIAFSNKLQILRV
no binding | no binding | binds | SPA1-RELATED 4 (protein, UniProt Q94BM7 1-794) MKGSSESSSRGLNNTSGVSEFCTDGSKSLSHIDYVRSLLGSHKEANLGGLDDDSIVRALECEDVSLRQWLDNPDRSVDAFECFHVFRQIVEIVNAAHSQGIVVHNVRPSCFVMSSFNNVSFIESASCSDSGSDEDATTKSREIGSSRQEEILSERRSKQQEEVKKQPFPMKQILAMEMSWYTSHEEDNGSLCNCASDIYRLGVLLFELFCPVSSREEKSRTMSSLRHRVLPPQILLNWPKEASFCLWLLHPEPSCRPSMSELLQSEFINEPRENLEEREAAMELRDRIEEQELLLEFLFLIQQRKQEAADKLQDTISLLSSDIDQVVKRQLVLQQKGRDVRSFLASRKRIRQGAETTAAEEENDDNSIDEESKLDDTLESTLLESSRLMRNLKKLESVYFATRYRQIKAATAAEKPLARYYSALSCNGRSSEKSSMSQPSKDPINDSRQGGWIDPFLEGLCKYLSFSKLRVKADLKQGDLLNSSNLVCAIGFDRDGEFFATAGVNKKIKIFECESIIKDGRDIHYPVVELASRSKLSGICWNSYIKSQVASSNFEGVVQVWDVARNQLVTEMKEHEKRVWSIDYSSADPTLLASGSDDGSVKLWSINQGVSIGTIKTKANICCVQFPSETGRSLAFGSADHKVYYYDLRNPKLPLCTMIGHHKTVSYVRFVDSSTLVSSSTDNTLKLWDLSMSISGINETPLHSFMGHTNVKNFVGLSVSDGYIATGSETNEVFVYHKAFPMPVLSYKFKTIDPVSELEVDDASQFISSVCWRGQSSTLVAANSTGNIKILEMV
binds | binds | binds | phyC (protein, UniProt P14714 1-1111) MSSNTSRSCSTRSRQNSRVSSQVLVDAKLHGNFEESERLFDYSASINLNMPSSSCEIPSSAVSTYLQKIQRGMLIQPFGCLIVVDEKNLKVIAFSENTQEMLGLIPHTVPSMEQREALTIGTDVKSLFLSPGCSALEKAVDFGEISILNPITLHCRSSSKPFYAILHRIEEGLVIDLEPVSPDEVPVTAAGALRSYKLAAKSISRLQALPSGNMLLLCDALVKEVSELTGYDRVMVYKFHEDGHGEVIAECCREDMEPYLGLHYSATDIPQASRFLFMRNKVRMICDCSAVPVKVVQDKSLSQPISLSGSTLRAPHGCHAQYMSNMGSVASLVMSVTINGSDSDEMNRDLQTGRHLWGLVVCHHASPRFVPFPLRYACEFLTQVFGVQINKEAESAVLLKEKRILQTQSVLCDMLFRNAPIGIVTQSPNIMDLVKCDGAALYYRDNLWSLGVTPTETQIRDLIDWVLKSHGGNTGFTTESLMESGYPDASVLGESICGMAAVYISEKDFLFWFRSSTAKQIKWGGARHDPNDRDGKRMHPRSSFKAFMEIVRWKSVPWDDMEMDAINSLQLIIKGSLQEEHSKTVVDVPLVDNRVQKVDELCVIVNEMVRLIDTAAVPIFAVDASGVINGWNSKAAEVTGLAVEQAIGKPVSDLVEDDSVETVKNMLALALEGSEERGAEIRIRAFGPKRKSSPVELVVNTCCSRDMTNNVLGVCFIGQDVTGQKTLTENYSRVKGDYARIMWSPSTLIPPIFITNENGVCSEWNNAMQKLSGIKREEVVNKILLGEVFTTDDYGCCLKDHDTLTKLRIGFNAVISGQKNIEKLLFGFYHRDGSFIEALLSANKRTDIEGKVTGVLCFLQVPSPELQYALQVQQISEHAIACALNKLAYLRHEVKDPEKAISFLQDLLHSSGLSEDQKRLLRTSVLCREQLAKVISDSDIEGIEEGYVELDCSEFGLQESLEAVVKQVMELSIERKVQISCDYPQEVSSMRLYGDNLRLQQILSETLLSSIRFTPALRGLCVSFKVIARIEAIGKRMKRVELEFRIIHPAPGLPEDLVREMFQPLRKGTSREGLGLHITQKLVKLMERGTLRYLRESEMSAFVILTEFPLI
binds | binds | binds | LWD1 (protein, UniProt Q9LPV9 1-346) MGTSSDPIQDGSDEQQKRSEIYTYEAPWHIYAMNWSVRRDKKYRLAITSLLEQYPNRVEIVQLDESNGEIRSDPNLSFEHPYPPTKTIFIPDKECQRPDLLATSSDFLRLWRIADDHSRVELKSCLNSNKNSEFCGPLTSFDWNEAEPRRIGTSSTDTTCTIWDIEREAVDTQLIAHDKEVFDIAWGGVGVFASVSADGSVRVFDLRDKEHSTIIYESSEPDTPLVRLGWNKQDPRYMATIIMDSAKVVVLDIRFPALPVVELQRHQASVNAIAWAPHSSCHICTAGDDSQALIWDISSMGQHVEGGLDPILAYTAGAEIEQLQWSSSQPDWVAIAFSTKLQILRV

These are yes or no findings as the source states them, for the method shown. In cells and extracts the contact can be indirect. A yes stands for co-enrichment or nearness to the bait. Other partners may have been found. For part of these data: No binding means not detected with the bait. For part of these data: Sequences can lack the tags named with a protein.
